From publication PMC3514159
Results are given in words; binding and its absence hold for the method and conditions named. Some entries that bind do so weakly or less than the wild type.

Chains of the proteins cited; added tags and fusions are not shown.
UniProt P49639: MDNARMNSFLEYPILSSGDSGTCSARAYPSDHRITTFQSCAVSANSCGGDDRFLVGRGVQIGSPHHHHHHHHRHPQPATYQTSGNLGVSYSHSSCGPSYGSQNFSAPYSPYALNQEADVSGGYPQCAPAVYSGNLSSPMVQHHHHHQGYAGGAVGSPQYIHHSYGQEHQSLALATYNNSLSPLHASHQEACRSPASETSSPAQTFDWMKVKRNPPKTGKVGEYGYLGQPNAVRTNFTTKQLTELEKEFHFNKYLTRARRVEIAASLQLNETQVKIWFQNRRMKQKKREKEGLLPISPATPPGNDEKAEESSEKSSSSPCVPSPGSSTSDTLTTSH
UniProt Q8WUM4: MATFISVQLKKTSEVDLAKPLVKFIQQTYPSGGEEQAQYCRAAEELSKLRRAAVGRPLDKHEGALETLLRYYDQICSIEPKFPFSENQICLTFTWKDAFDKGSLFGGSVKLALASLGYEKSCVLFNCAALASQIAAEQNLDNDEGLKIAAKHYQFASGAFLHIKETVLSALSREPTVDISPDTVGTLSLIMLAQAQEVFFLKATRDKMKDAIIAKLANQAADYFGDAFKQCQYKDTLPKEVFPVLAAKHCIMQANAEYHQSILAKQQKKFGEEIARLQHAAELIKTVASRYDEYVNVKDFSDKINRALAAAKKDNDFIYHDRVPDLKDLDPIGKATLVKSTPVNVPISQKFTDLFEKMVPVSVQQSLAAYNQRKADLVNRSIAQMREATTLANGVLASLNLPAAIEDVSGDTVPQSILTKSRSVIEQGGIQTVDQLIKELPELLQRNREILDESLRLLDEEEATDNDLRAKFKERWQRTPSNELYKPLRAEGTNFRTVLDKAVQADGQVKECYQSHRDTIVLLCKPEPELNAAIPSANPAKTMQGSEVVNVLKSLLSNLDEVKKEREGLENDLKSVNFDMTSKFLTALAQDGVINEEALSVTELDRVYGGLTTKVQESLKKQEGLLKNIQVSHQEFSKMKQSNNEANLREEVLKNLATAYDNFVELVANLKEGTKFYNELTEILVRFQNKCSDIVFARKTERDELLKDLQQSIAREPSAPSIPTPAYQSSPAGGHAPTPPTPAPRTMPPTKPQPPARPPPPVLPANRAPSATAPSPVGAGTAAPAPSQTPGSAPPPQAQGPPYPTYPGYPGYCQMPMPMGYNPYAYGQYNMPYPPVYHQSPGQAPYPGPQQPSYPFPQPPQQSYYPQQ
UniProt O75865: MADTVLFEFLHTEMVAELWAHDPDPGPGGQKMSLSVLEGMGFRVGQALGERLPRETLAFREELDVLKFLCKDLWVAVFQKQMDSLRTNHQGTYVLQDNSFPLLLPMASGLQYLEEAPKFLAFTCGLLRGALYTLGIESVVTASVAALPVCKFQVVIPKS
UniProt P09022: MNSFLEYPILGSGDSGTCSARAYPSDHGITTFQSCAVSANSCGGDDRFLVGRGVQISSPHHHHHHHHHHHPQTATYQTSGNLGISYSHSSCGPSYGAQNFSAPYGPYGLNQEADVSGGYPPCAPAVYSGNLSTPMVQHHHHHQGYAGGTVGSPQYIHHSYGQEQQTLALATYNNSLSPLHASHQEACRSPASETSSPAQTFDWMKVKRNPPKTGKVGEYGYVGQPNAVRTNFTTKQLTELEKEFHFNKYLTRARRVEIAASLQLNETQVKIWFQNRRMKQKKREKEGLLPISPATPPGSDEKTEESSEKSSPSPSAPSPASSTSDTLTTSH

Experiments:
Assay in all cases: two-hybrid; AD-Hoxa1 (Gal4 activation domain) in MATa Y8800 mated with the DB-hORF library in MATα Y8930; 30°C; selection on Sc-L-T-H + 1 mM 3AT, retest on Sc-L-T-H, Sc-L-T-A and Sc-L-T-H-A+3AT
[1] = molecular target: T1, aarF domain containing kinase 4 (human) (UniProt Q96D53)
T1 sequence: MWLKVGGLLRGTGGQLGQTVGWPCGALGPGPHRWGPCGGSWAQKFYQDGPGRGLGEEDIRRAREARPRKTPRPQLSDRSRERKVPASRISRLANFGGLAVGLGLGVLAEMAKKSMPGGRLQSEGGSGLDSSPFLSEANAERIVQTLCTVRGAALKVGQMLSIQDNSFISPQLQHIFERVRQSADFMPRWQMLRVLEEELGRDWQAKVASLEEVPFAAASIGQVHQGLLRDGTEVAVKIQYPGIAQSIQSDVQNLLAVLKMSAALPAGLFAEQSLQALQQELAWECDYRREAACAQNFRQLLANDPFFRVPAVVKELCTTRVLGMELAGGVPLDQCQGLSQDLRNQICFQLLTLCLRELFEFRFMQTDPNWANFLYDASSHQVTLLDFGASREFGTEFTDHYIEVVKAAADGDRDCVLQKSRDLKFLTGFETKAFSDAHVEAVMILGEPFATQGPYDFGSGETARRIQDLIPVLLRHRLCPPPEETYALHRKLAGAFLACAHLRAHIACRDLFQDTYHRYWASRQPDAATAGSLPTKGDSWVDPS

homeobox A1 (human) = homeobox A1 (human) (UniProt P49639)
[2] = molecular target: T2, hydroxy-delta-5-steroid dehydrogenase, 3 β- and steroid delta-isomerase 7 (human) (UniProt Q9H2F3)
T2 sequence: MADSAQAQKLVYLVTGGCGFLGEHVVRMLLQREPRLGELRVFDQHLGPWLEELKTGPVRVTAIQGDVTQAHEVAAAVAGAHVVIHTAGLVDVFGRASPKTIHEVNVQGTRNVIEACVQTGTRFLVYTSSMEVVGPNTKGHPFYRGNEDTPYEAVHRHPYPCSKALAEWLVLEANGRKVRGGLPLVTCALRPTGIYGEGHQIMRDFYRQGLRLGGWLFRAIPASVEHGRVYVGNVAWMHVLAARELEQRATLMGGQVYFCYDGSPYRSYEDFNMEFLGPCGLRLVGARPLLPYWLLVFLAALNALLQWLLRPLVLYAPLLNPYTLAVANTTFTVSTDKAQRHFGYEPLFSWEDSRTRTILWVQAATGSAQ

[3] = molecular target: T3, keratin associated protein 4-12 (human) (UniProt Q9BQ66)
T3 sequence: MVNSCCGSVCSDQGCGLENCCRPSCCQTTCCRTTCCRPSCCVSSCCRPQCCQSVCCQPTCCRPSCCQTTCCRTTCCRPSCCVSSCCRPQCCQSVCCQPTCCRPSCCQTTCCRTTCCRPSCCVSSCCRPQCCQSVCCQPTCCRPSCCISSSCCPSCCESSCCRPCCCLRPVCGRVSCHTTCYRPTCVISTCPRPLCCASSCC

[4] = molecular target: T4, phosphofructokinase, muscle (human) (UniProt P08237)
T4 sequence: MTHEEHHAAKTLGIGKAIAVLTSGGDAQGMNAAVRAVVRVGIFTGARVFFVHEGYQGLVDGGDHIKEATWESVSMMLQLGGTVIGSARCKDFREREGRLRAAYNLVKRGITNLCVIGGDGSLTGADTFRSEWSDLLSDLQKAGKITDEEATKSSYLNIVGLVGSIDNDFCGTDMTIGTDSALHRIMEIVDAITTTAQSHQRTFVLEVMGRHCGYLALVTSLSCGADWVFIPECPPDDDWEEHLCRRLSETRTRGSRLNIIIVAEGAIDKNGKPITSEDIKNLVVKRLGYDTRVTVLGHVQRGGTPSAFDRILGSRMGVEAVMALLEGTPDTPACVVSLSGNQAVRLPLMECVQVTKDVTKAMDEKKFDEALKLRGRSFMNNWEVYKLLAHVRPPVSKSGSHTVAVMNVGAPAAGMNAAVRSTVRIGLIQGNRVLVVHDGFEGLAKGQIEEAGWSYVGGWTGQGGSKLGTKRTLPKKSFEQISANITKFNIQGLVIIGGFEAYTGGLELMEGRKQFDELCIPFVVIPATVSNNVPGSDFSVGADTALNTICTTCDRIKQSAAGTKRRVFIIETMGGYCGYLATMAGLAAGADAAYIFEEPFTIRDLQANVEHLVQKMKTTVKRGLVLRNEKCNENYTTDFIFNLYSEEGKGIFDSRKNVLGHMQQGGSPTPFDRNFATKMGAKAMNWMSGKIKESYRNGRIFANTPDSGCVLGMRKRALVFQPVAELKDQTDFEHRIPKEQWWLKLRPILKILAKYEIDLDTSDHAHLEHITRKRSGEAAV

[5] = molecular target: programmed cell death 6 interacting protein (human) (UniProt Q8WUM4)
[6] = molecular target: trafficking protein particle complex 6A (human) (UniProt O75865)

Measured: binding

Hoxa1 (from UniProt P09022 1-331)
binds: [1] | homeobox A1 (human) | [2] | [3] | [4] | [5] | [6]
